In article PMC5378391, “Maltose binding protein-fusion enhances the bioactivity of truncated forms of pig myostatin propeptide produced in E. coli” (PLoS ONE, 2017):
Results are given in words; binding and its absence hold for the method and conditions named. Some entries that bind do so weakly or less than the wild type. Where a sequence is shown, tags or fusion partners need not be part of it. Each block holds one molecule with its values, some of them ahead of it.

Experiments:
[1] = target: T1, MBP-fused truncated pig MSTNpro containing residues 42-98 (pig) (UniProt O18831); experiment: condition: only at 1 nM MBP-Pro42-98 with 6 nM MSTN; pull-down; as a2, but 1 nM MBP-Pro42-175 or MBP-Pro42-98 with 6 nM MSTN on amylose resin; immuno-blot against MSTN; both purified
T1 sequence: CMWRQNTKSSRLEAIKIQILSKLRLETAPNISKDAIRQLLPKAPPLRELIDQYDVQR

[2] = target: T1, MBP-fused truncated pig MSTNpro containing residues 42-98 (pig); experiment: pull-down; MSTN (6 nM) with 15, 30, 45 and 60 nM MBP-Pro42-175 or MBP-Pro42-98, or 60 nM MBP, on amylose resin; eluate immuno-blotted with monoclonal anti-MSTN antibody; both purified
[3] = target: T1, MBP-fused truncated pig MSTNpro containing residues 42-98 (pig); experiment: pull-down; MBP-MSTNpro protein (480 nM) plus MSTN (48 nM) mixed with 50 uL amylose resin in 1 mL, 2 hr at room temperature; washed three times with column buffer; eluted in reducing SDS-PAGE loading buffer; Coomassie blue staining; both purified
[4] = target: T1, MBP-fused truncated pig MSTNpro containing residues 42-98 (pig); experiment: SEC; factor Xa digest of MBP-Pro42-98 on Superdex 75 (FPLC); fractions f16 (void volume) and f22 analysed by reducing SDS-PAGE; both purified

binding [1]: no binding
binding [2]: binds
binding [3]: binds
Molecule: Myostatin (MSTN) (from UniProt O14793 267-375) (ligand)

binding [4]: binds
B1: Pro42-98 (MBP removed by factor Xa) (domain or fragment, pig, UniProt O18831 42-98, looked up)
chain: T1 sequence
notes: Pig myostatin propeptide (MSTNpro), residues 42-98; Derived from m4; also called MBP-removed MSTNpro domain containing residues 42-98; source: E. coli K12TB1; MBP-Pro42-98 digested with factor Xa, soluble fraction of the digest / Superdex 75 fraction f16; not shown: MBP, N-terminal, cleaved
